This test relates to BDNF-induced nuclear Arc expression in primary cortical neurons. Kind of test: Chemogenomic screen: high-content image-based assay of BDNF-induced nuclear Arc expression (96-well). The format is cell-based, mouse. The settings on record: for Percentage of cell with nuclear Arc immunostaining above 2σ threshold: chemogenomic (SMART) screen, BDNF-induced nuclear Arc expression, primary cortical neurons, BDNF control 19.5; for Fold-change — Normalized to DMSO control (BDNF): nuclear Arc-positive cells relative to DMSO + BDNF control, negative values = decrease. Here is the method:
To increase the throughput of our pharmacological screening for modulators of Arc, the above mentioned assay was adapted to cultures of mouse primary cortical neurons in 96-well plates.
All 319 compounds were initially tested at a final concentration of 16.7 µM with three biological replicates.
Screening of compounds in the chemogenomic library was carried out using DIV13 primary forebrain cortical neurons cultured on poly-L-lysine/laminin-coated 96-well plates (Ibidi USA, Madison, WI). Cells were seeded at a density of 30,000 cells per well and treated with the compound library and BDNF according to the experimental design presented in Fig. 3a. After experimental treatment, cells were processed for Arc and acetyl-H3K9 immunocytochemistry according to the protocol described above. Both antigens (Arc and acetyl-H3K9) were imaged using an IN Cell Analyzer 6000 imaging system and a ×40 objective. […] High-throughput quantification of nuclear Arc immunofluorescence signal was performed in a similar fashion than the low-throughput procedure described above but with the exception that acetyl-H3K9 was used as a nuclear mask to guide the automated quantification of nuclear Arc immunofluorescence signal.

Consider two compounds from paper PMC5698418 (Nature Communications, 2017).

On to `Cc1cnc(C(=O)NCCc2ccc(S(=O)(=O)NC(=O)NC3CCCCC3)cc2)cn1` [Glipizide], for which the “Percentage of cell with nuclear Arc immunostaining above 2σ threshold” value was found to be 24.8% and the “Fold-change — Normalized to DMSO control (BDNF)” value is 1.3 fold.

On to `NS(=O)(=O)c1cc(C(=O)O)c(NCc2ccco2)cc1Cl` [Furosemide], for which the “Percentage of cell with nuclear Arc immunostaining above 2σ threshold” value is on record as 22.7% and the “Fold-change — Normalized to DMSO control (BDNF)” value was 1.2 fold.
